Assay results taken from the supplement of paper PMC12819154, “High-throughput peptide-centric local stability assay extends protein–ligand identification to membrane proteins, tissues and bacteria” (Nature Structural & Molecular Biology, 2025).
This is one part of the list. Most values lie at the level of the controls, where differences are scatter.

By UniProt entry, the sequences of proteins in these tests, tags left out. Where a name states a change or a piece, a line headed by the entry shows the natural chain unless it says otherwise.
UniProt Q9UJU2, whole entry: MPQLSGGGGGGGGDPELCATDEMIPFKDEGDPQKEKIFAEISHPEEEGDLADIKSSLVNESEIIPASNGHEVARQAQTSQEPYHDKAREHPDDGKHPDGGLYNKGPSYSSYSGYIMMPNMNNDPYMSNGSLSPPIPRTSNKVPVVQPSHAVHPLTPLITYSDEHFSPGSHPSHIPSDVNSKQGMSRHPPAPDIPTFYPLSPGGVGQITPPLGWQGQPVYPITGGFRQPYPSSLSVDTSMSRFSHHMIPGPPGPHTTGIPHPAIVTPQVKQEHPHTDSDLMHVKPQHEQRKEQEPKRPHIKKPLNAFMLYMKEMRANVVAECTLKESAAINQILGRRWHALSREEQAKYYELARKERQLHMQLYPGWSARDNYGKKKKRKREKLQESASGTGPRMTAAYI
UniProt Q9UFG5: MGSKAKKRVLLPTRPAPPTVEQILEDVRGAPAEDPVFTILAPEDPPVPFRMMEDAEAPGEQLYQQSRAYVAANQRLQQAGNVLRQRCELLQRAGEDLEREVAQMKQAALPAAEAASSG
UniProt Q9UHX1: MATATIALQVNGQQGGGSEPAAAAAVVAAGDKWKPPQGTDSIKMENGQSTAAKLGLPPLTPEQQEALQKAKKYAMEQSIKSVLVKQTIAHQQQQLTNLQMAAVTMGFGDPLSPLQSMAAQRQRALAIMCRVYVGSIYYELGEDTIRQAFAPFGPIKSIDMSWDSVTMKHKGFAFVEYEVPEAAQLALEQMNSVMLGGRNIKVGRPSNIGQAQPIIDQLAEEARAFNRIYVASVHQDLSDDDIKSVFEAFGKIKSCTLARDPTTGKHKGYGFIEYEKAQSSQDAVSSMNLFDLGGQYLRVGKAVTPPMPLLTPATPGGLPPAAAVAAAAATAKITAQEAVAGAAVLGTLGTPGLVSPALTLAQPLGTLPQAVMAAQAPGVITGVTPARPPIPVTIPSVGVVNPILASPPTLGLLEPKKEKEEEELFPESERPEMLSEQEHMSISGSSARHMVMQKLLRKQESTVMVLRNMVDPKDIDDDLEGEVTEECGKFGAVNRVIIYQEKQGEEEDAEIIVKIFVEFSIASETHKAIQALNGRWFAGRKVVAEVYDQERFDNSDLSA
UniProt Q9P0W2: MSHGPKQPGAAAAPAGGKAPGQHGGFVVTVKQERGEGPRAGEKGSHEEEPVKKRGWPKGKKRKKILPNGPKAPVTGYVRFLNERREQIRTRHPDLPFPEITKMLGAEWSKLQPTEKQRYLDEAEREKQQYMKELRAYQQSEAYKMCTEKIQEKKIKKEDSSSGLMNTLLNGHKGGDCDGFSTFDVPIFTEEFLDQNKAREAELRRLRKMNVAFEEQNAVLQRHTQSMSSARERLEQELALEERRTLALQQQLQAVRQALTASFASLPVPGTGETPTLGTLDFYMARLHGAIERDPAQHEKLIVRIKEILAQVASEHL
UniProt Q9P258, whole entry: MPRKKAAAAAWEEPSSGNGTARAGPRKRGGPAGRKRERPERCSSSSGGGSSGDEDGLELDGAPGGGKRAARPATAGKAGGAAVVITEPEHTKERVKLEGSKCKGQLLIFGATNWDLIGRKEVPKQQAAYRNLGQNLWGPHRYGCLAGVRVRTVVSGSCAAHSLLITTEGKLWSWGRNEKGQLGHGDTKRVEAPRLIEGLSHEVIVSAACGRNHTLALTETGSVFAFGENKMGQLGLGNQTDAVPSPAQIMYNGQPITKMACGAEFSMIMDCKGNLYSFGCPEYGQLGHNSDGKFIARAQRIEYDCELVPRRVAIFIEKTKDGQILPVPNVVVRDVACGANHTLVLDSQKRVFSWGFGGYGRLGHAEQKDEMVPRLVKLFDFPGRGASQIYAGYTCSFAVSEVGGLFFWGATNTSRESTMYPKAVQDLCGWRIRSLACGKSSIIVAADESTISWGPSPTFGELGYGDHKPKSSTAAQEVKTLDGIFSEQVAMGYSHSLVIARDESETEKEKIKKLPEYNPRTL
UniProt Q9UHF7: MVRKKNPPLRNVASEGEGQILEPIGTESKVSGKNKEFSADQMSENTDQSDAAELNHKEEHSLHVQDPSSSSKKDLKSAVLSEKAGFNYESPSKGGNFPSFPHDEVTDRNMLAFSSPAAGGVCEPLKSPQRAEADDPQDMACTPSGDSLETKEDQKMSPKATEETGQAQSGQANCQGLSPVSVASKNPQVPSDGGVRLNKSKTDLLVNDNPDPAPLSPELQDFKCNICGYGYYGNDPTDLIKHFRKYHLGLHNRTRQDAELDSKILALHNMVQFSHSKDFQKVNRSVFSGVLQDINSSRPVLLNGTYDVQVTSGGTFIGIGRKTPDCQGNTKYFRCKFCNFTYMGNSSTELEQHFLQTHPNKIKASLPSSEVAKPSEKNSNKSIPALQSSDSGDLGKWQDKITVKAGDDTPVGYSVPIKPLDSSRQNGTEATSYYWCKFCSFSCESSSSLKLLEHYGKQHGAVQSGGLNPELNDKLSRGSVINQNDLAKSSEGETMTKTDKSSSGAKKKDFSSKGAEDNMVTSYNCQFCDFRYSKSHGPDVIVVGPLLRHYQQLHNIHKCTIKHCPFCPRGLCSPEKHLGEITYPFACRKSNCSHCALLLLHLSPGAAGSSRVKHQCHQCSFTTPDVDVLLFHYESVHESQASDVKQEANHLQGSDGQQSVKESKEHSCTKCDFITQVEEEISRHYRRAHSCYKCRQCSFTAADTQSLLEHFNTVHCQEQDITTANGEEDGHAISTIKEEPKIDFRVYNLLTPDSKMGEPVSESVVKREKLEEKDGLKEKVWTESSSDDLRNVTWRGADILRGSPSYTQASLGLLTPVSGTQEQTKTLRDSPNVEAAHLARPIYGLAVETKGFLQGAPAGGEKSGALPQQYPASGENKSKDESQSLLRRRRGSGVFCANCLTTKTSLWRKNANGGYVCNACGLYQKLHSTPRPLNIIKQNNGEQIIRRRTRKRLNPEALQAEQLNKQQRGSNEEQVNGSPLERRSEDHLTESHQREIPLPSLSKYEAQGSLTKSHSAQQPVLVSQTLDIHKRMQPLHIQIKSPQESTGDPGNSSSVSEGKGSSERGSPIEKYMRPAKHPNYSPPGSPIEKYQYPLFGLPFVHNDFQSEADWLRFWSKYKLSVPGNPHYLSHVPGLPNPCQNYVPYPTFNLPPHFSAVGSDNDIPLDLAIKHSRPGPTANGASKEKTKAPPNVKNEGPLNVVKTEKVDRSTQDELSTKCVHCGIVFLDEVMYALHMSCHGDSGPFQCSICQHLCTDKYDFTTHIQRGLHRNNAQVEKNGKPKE
UniProt Q9NZW5: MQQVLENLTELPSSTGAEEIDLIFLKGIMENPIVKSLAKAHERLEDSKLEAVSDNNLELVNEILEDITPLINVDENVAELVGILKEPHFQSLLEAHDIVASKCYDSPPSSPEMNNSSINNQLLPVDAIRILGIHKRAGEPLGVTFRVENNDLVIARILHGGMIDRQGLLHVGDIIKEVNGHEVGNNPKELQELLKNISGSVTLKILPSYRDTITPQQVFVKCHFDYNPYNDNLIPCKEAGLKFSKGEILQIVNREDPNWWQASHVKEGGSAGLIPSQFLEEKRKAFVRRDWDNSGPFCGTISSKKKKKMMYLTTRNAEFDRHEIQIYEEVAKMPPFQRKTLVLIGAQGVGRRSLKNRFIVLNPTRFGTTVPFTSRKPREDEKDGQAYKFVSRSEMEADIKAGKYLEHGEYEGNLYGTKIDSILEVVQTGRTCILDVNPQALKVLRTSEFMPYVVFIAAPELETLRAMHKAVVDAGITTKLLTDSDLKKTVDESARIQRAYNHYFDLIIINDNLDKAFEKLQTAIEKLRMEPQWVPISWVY
UniProt Q9UHL0: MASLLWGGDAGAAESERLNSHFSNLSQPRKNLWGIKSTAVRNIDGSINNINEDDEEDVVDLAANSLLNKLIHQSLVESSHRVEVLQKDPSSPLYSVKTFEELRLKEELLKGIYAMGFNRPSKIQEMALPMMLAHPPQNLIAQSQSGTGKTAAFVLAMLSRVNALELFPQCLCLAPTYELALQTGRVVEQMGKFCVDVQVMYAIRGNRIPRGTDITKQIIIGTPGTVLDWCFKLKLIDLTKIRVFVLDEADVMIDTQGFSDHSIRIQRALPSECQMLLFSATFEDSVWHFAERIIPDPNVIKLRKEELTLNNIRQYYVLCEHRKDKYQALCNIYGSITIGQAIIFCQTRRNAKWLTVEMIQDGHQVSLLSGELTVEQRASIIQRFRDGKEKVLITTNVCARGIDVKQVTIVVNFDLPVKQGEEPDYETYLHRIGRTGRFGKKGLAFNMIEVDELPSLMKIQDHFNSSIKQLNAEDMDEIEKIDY

Compound: CN[C@@H]1C[C@H]2O[C@@](C)([C@@H]1OC)n1c3ccccc3c3c4c(c5c6ccccc6n2c5c31)C(=O)NC4 [staurosporine]
Assay: log2 fold change of tryptic peptide abundance, ligand vs vehicle (limited proteolysis) (log2 ratio); higher = more trypsin-susceptible (destabilized)
Conditions: ligand concentration: 20 uM; sample: K562 cleared lysate; digestion: 4 min, 22 C (HT-PELSA RT4min, Orbitrap Astral)

| Target | log2 fold change |
| --- | --- |
| LEF1 (peptide sequence: QEHPHTDSDLMHVKPQHEQR, peptide start residue: 270) (UniProt Q9UJU2) | -0.455 |
| C19orf25 (peptide sequence: MMEDAEAPGEQLYQQSR, peptide start residue: 51) (UniProt Q9UFG5) | -0.229 |
| PUF60 (peptide sequence: KYAMEQSIK, peptide start residue: 72) (UniProt Q9UHX1) | 0.236 |
| HMG20B (peptide sequence: LHGAIERDPAQHEK, peptide start residue: 287) (UniProt Q9P0W2) | 0.273 |
| RCC2 (peptide sequence: LIEGLSHEVIVSAACGR, peptide start residue: 195) (UniProt Q9P258) | 0.292 |
| TRPS1 (peptide sequence: RSEDHLTESHQR, peptide start residue: 983) (UniProt Q9UHF7) | -1 |
| MPP6 (peptide sequence: EGGSAGLIPSQFLEEKR, peptide start residue: 267) (UniProt Q9NZW5) | 0.902 |
| DDX25 (peptide sequence: TAAFVLAMLSR, peptide start residue: 144) (UniProt Q9UHL0) | 0.153 |
